These are yes or no findings as the source states them, for the method shown. Each block holds one molecule with its values, some of them ahead of it.
Columns and labels:
[1] = target: LTBP1 C-terminal construct CT (residues 1002–1395) (UniProt Q14766); assay: SEC-MALS; Superdex 200 or Superose 6; 0.5 ml at ~0.5 mg/ml; 10 mM Tris, 150 mM NaCl, 2 mM CaCl2, pH 7.4; self-association; NT2 monomer also stored overnight at 4 °C in 2 mM calcium and the dimer fraction rerun; both purified
[2] = target: LTBP1 C-terminal construct CT (residues 1002–1395) (UniProt Q14766); assay: cross-linking; transglutaminase-2 (guinea pig liver) at 0.1:1, 2 hours at 30 °C, 10 mM Hepes, 150 mM NaCl pH 7.4, 1 mM CaCl2; each construct alone; western blot with anti-histidine antibody; both purified
[3] = target: LTBP1 C-terminal construct CT (residues 1002–1395) (UniProt Q14766); assay: AUC; ~0.5 mg/ml; 10 mM Tris, 150 mM NaCl, 2 mM CaCl2, pH 7.4; self-association; NT1 also after 12 h pre-incubation with ~10x molar excess of low molecular weight heparin; both purified
[4] = target: LTBP1 N-terminal construct NT2 (residues 21–630) (UniProt Q14766); assay: AUC; NT2 with 2 mM EDTA in place of calcium; both purified
[5] = target: LTBP1 N-terminal construct NT2 (residues 21–630) (UniProt Q14766); assay: SEC-MALS; NT2 monomer stored overnight at 4 °C in 2 mM EGTA; Superose 6 column; both purified
[6] = target: LTBP1 EGF region (residues 526–1014) (UniProt Q14766); assay: SEC-MALS; Superdex 200 or Superose 6; 0.5 ml at ~0.5 mg/ml; 10 mM Tris, 150 mM NaCl, 2 mM CaCl2, pH 7.4; self-association; NT2 monomer also stored overnight at 4 °C in 2 mM calcium and the dimer fraction rerun; both purified
[7] = target: LTBP1 EGF region (residues 526–1014) (UniProt Q14766); assay: cross-linking; transglutaminase-2 (guinea pig liver) at 0.1:1, 2 hours at 30 °C, 10 mM Hepes, 150 mM NaCl pH 7.4, 1 mM CaCl2; each construct alone; western blot with anti-histidine antibody; both purified
[8] = target: LTBP1 EGF region (residues 526–1014) (UniProt Q14766); assay: AUC; ~0.5 mg/ml; 10 mM Tris, 150 mM NaCl, 2 mM CaCl2, pH 7.4; self-association; NT1 also after 12 h pre-incubation with ~10x molar excess of low molecular weight heparin; both purified

binding [1]: no binding (tested: ~0.5 mg ml^-1) | binding [2]: no binding | binding [3]: no binding (tested: ~0.5 mg ml^-1)
Molecule: LTBP1 C-terminal construct CT (residues 1002–1395) (from UniProt Q14766-2 1002-1395) (domain or fragment)

binding [4]: no binding (condition: with 2 mM EDTA) | binding [5]: no binding (condition: with 2 mM EGTA)
B1: LTBP1 N-terminal construct NT2 (residues 21–630) (domain or fragment, UniProt Q14766-2 21-630, looked up)
chain: NHTGRIKVVFTPSICKVTCTKGSCQNSCEKGNTTTLISENGHAADTLTATNFRVVICHLPCMNGGQCSSRDKCQCPPNFTGKLCQIPVHGASVPKLYQHSQQPGKALGTHVIHSTHTLPLTVTSQQGVKVKFPPNIVNIHVKHPPEASVQIHQVSRIDGPTGQKTKEAQPGQSQVSYQGLPVQKTQTIHSTYSHQQVIPHVYPVAAKTQLGRCFQETIGSQCGKALPGLSKQEDCCGTVGTSWGFNKCQKCPKKPSYHGYNQMMECLPGYKRVNNTFCQDINECQLQGVCPNGECLNTMGSYRCTCKIGFGPDPTFSSCVPDPPVISEEKGPCYRLVSSGRQCMHPLSVHLTKQLCCCSVGKAWGPHCEKCPLPGTAAFKEICPGGMGYTVSGVHRRRPIHHHVGKGPVFVKPKNTQPVAKSTHPPPLPAKEEPVEALTFSREHGPGVAEPEVATAPPEKEIPSLDQEKTKLEPGQPQLSPGISTIHLHPQFPVVIEKTSPPVPVEVAPEASTSSASQVIAPTQVTEINECTVNPDICGAGHCINLPVRYTCICYEGYRFSEQQRKCVDIDECTQVQHLCSQGRCENTEGSFLCICPAGFMASEEGTNCI
notes: LTBP1S residues 21-630; also called NT2 region

binding [6]: no binding (tested: ~0.5 mg ml^-1) | binding [7]: no binding | binding [8]: no binding (tested: ~0.5 mg ml^-1)
B2: LTBP1 EGF region (residues 526–1014) (domain or fragment, UniProt Q14766-2 526-1014)
chain: EVAPEASTSSASQVIAPTQVTEINECTVNPDICGAGHCINLPVRYTCICYEGYRFSEQQRKCVDIDECTQVQHLCSQGRCENTEGSFLCICPAGFMASEEGTNCIDVDECLRPDVCGEGHCVNTVGAFRCEYCDSGYRMTQRGRCEDIDECLNPSTCPDEQCVNSPGSYQCVPCTEGFRGWNGQCLDVDECLEPNVCANGDCSNLEGSYMCSCHKGYTRTPDHKHCRDIDECQQGNLCVNGQCKNTEGSFRCTCGQGYQLSAAKDQCEDIDECQHRHLCAHGQCRNTEGSFQCVCDQGYRASGLGDHCEDINECLEDKSVCQRGDCINTAGSYDCTCPDGFQLDDNKTCQDINECEHPGLCGPQGECLNTEGSFHCVCQQGFSISADGRTCEDIDECVNNTVCDSHGFCDNTAGSFRCLCYQGFQAPQDGQGCVDVNECELLSGVCGEAFCENVEGSFLCVCADENQEYSPMTGQCRSRTSTDLDVDVD
